Reference: the supplement of paper PMC12819154, “High-throughput peptide-centric local stability assay extends protein–ligand identification to membrane proteins, tissues and bacteria” (Nature Structural & Molecular Biology, 2025)
The list shows a part of the results. Most entries show no effect beyond the scatter of the controls.

Compound: CC1(C)S[C@@H]2[C@H](NC(=O)[C@H](N)c3ccccc3)C(=O)N2[C@H]1C(=O)O [ampicillin]
Experiment: log2 fold change of tryptic peptide abundance, ligand vs vehicle (limited proteolysis) (log2 ratio); higher = more trypsin-susceptible (destabilized)
Settings: ligand concentration: 10 uM; sample: E. coli crude lysate

Target | log2 fold change
UniProt P07109 (peptide sequence: LNVIDLHK, peptide start residue: 6) | -0.407
UniProt P07822 (peptide sequence: GFNFSDGKQPLAMAR, peptide start residue: 121) | -0.314
UniProt P08390 (peptide sequence: QLAFNMLPLLPDSEGSVREERR, peptide start residue: 194) | -0.238
UniProt P09155 (peptide sequence: QEVVAPEDAWR, peptide start residue: 191) | -0.699
UniProt P04693 (peptide sequence: VGADFLKR, peptide start residue: 110) | -0.578
UniProt P06864 (peptide sequence: VPLMNEFGEYPHPKPR, peptide start residue: 493) | 0.223
UniProt P04846 (peptide sequence: HLQIMELEGAQLPR, peptide start residue: 177) | -0.0584
UniProt P09126 (peptide sequence: TTALALHTVSGQK, peptide start residue: 90) | 0.332
UniProt P08997 (peptide sequence: GSGPYFYLPK, peptide start residue: 206) | -0.321
UniProt P05458 (peptide sequence: VPNKESKK, peptide start residue: 255) | -0.3
UniProt P09373 (peptide sequence: GAVASLTSVAK, peptide start residue: 644) | -0.22
UniProt P04825 (peptide sequence: DQEFSSDLGSR, peptide start residue: 327) | -0.12
UniProt P0A698 (peptide sequence: NINLVIPR, peptide start residue: 16) | -0.192
UniProt P05706 (peptide sequence: ELGHVTLR, peptide start residue: 80) | 0.0582
UniProt P07658 (peptide sequence: TNQGTLCLK, peptide start residue: 36) | 0.265
UniProt P00448 (peptide sequence: QTMEIHHTK, peptide start residue: 22) | -0.519

Another view of some results above:
Target	log2 fold change
UniProt P06864 (peptide sequence: VPLMNEFGEYPHPKPR, peptide start residue: 493)	0.223
UniProt P04825 (peptide sequence: DQEFSSDLGSR, peptide start residue: 327)	-0.12

More records.

Target | log2 fold change
UniProt P00370 (peptide sequence: KLSNNTACVFTGK, peptide start residue: 185) | -0.392
UniProt P00634 (peptide sequence: AAQGDITAPGGARR, peptide start residue: 33) | 0.165
UniProt P00509 (peptide sequence: DFSFIIK, peptide start residue: 337) | -0.489
UniProt P05041 (peptide sequence: AMEIIDELEPQRR, peptide start residue: 375) | -0.255
UniProt P06971 (peptide sequence: GASNTYDHLIIR, peptide start residue: 115) | 0.517
UniProt P02930 (peptide sequence: LSNPELRK, peptide start residue: 34) | -0.25
UniProt P09546 (peptide sequence: IYAPVGTHETLLAYLVRR, peptide start residue: 539) | 0.323
UniProt P00582 (peptide sequence: QLQTILFEK, peptide start residue: 585) | 0.431
UniProt P07003 (peptide sequence: GFSLYMLR, peptide start residue: 545) | -0.292
UniProt P09030 (peptide sequence: DHPIKFPAK, peptide start residue: 117) | -0.233
UniProt P07330 (peptide sequence: LRPMPVVMVSSLTGK, peptide start residue: 74) | -0.488
UniProt P02924 (peptide sequence: TTGSMDALK, peptide start residue: 175) | -0.2
UniProt P00968 (peptide sequence: STGEVMGVGRTFAEAFAK, peptide start residue: 913) | -0.381
UniProt P03841 (peptide sequence: GVGNSIPDIPDPVARHTTDGLLKLK, peptide start residue: 184) | 0.621
UniProt P00946 (peptide sequence: FEAKPANQLLTQPVK, peptide start residue: 293) | 0.259
